Laboratory results as given in PubChem BioAssay AID504834 (National Center for Advancing Translational Sciences (NCATS), 2011).
Screen size: about 320,000 compounds; about 22,000 (6.9%) were called active. Inconclusive results, whose numbers are uncertain, are shown with a selection of clear calls. The call rests on the fitted dose curve; in most records, active means well fitted inhibition curve with a large enough effect; inconclusive means small, poorly fitted or top-dose-only effect, or another doubt; inactive means no such curve, though single readings can be large or run the other way. A potency beside an inconclusive call is a rough fit, not a confirmed value.

Assay: Primary qHTS for delayed death inhibitors of the malarial parasite plastid, 96 hour incubation
Conditions: P. falciparum luciferase reporter growth; series mostly up to 28.7 µM; activity change, negative = inhibition: at the top concentration
Procedure, shortened: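 Two-generation exposure (96 h) targets delayed-death phenotype. Reporter parasites carrying integrated firefly luciferase, in red cells at 2% hematocrit and 0.05% parasitemia final, kept at 37 C, 5% CO2; luminescence loss indicates inhibition.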
On the % scale 0 is the no-effect control and ±100 the full control effect; potency means the concentration at half of the fitted maximal effect.

Compound | activity change, negative = inhibition | Potency
O=C(COc1ccccc1)c1cn(CC(=O)N2CCOCC2)c2ccccc12 | inactive: -4.6% | 
Oc1cncc(Cc2ccccc2)c1 |  | inconclusive: 18.5 µM [inhibitor, single point]
CCOc1ccccc1C1CC(=O)Nc2cc3c(cc21)OCO3 (centres undefined) |  | inconclusive: 7.38 µM [inhibitor, partial curve]
Cc1cccc2cc(CN(C(=O)c3cnccn3)C3CCCCC3)c(Cl)nc12 |  | inconclusive: 1.85 µM [inhibitor, full curve, poor fit]
O=C(Nc1ccc(-c2csc(-c3ccccc3)n2)cc1)c1ccccc1Cl |  | inconclusive: 16.5 µM [inhibitor, single point]
CNC(C(=O)c1ccccc1)C(OC)c1ccc(C)cc1 (centres undefined) | inactive: 47.4% | 
Cc1cccc(N(CC(=O)N2CCCCCC2)S(C)(=O)=O)c1C | inactive: 0% | 
COc1ccc(S(=O)(=O)N2CCOCC2)cc1NC(=O)CCNC(=O)c1ccc([N+](=O)[O-])cc1 |  | inconclusive: 18.5 µM [inhibitor, single point]
COc1ccc(Cn2c(C3CC3)nc3ccc(NC(=O)c4ccco4)cc3c2=O)cc1 |  | active: 2.08 µM
Cn1c(SCC(=O)c2ccc(O)c(O)c2)nnc1-c1cccs1 |  | inconclusive: 18.5 µM [inhibitor, single point]
CC(=O)c1cccc(N=Nc2c(-c3ccccc3)[nH]n(-c3ccccc3)c2=O)c1 |  | inconclusive: 18.5 µM [inhibitor, single point]
Cc1ccc(C2(C(F)(F)F)N=C3Sc4cc(C)ccc4N3C(=O)N2)cc1 (centres undefined) |  | inconclusive: 0.738 µM [inhibitor, full curve, poor fit]
COc1ccc(C(=O)c2c[nH]c(C(=O)NCCCn3ccnc3)c2)cc1 |  | inconclusive: 16.5 µM [inhibitor, partial curve, poor fit]
Cc1cc(C(=O)OCC(=O)N(C)c2c(N)n(Cc3ccccc3)c(=O)[nH]c2=O)c(C)n1-c1ccccc1 |  | inconclusive: 18.5 µM [inhibitor, partial curve, poor fit]
O=C(CSc1ccc2nnc(-c3ccccn3)n2n1)NCC1CCCO1 (centres undefined) |  | inconclusive: 11.7 µM [inhibitor, single point]
CCN(CC)c1ccc(N=Nc2nn(C)c(C)c2[N+](=O)[O-])cc1 |  | active: 3.7 µM
COc1ccc(-c2nnn(Cc3nc(N)nc(N4CCOCC4)n3)n2)cc1OC | inactive: -12.6% | 
COc1ccc(C(=O)NC(=S)NCC2CCCO2)cc1 (centres undefined) | inactive: 17.9% | 
NC(=O)c1ccc[n+](CC(=O)c2ccc(NC(=O)c3ccccc3)cc2)c1 | inactive: 26.3% | 
CCCCC(=O)NC(=S)Nc1nnn(CCC)n1 |  | inconclusive: 13.1 µM [inhibitor, partial curve, poor fit]
Cn1c2c(c(=O)n(C)c1=O)C(c1ccc(F)cc1)C(C#N)=C(N)O2 (centres undefined) |  | inconclusive: 8.28 µM [inhibitor, partial curve, poor fit]
O=C1C=C(c2cccs2)C[C@H](c2ccccc2)[C@H]1n1nnc([N+](=O)[O-])n1 |  | inconclusive: 18.5 µM [inhibitor, single point]

Not a retest: an excerpt of the list.
Compound | activity change, negative = inhibition | Potency
O=C(Nc1ccc(-c2csc(-c3ccccc3)n2)cc1)c1ccccc1Cl |  | inconclusive: 16.5 µM [inhibitor, single point]
CNC(C(=O)c1ccccc1)C(OC)c1ccc(C)cc1 (centres undefined) | inactive: 47.4% | 
Cc1cccc(N(CC(=O)N2CCCCCC2)S(C)(=O)=O)c1C | inactive: 0% | 
COc1ccc(S(=O)(=O)N2CCOCC2)cc1NC(=O)CCNC(=O)c1ccc([N+](=O)[O-])cc1 |  | inconclusive: 18.5 µM [inhibitor, single point]
COc1ccc(Cn2c(C3CC3)nc3ccc(NC(=O)c4ccco4)cc3c2=O)cc1 |  | active: 2.08 µM
Cn1c(SCC(=O)c2ccc(O)c(O)c2)nnc1-c1cccs1 |  | inconclusive: 18.5 µM [inhibitor, single point]
CC(=O)c1cccc(N=Nc2c(-c3ccccc3)[nH]n(-c3ccccc3)c2=O)c1 |  | inconclusive: 18.5 µM [inhibitor, single point]
Cc1ccc(C2(C(F)(F)F)N=C3Sc4cc(C)ccc4N3C(=O)N2)cc1 (centres undefined) |  | inconclusive: 0.738 µM [inhibitor, full curve, poor fit]

The listing continues:

Compound | activity change, negative = inhibition | Potency
O=C(Nc1ccc2c(c1)OCO2)c1ccncc1 |  | inconclusive: 9.28 µM [inhibitor, partial curve, poor fit]
OCC1CCCN(c2ncnc3scc(-c4ccccc4)c23)C1 (centres undefined) |  | inconclusive: 1.04 µM [inhibitor, partial curve]
O=c1c2ccccc2c(C=Nc2ccc(S(=O)(=O)Nc3ncccn3)cc2)c(O)n1-c1cccc(Cl)c1 |  | inconclusive: 5.22 µM [inhibitor, partial curve, poor fit]
COc1ccc(/C=N/NC(=O)CNC(=O)c2ccncc2)cc1 |  | inconclusive: 8.28 µM [inhibitor, single point]
COc1cc(Nc2ccc(C(=O)O)cc2[N+](=O)[O-])cc(OC)c1 | inactive: 100% | 
Clc1cccc(Cl)c1CSc1nnc(CN2CCOCC2)n1-c1ccccc1 |  | inconclusive: 16.5 µM [inhibitor, single point]
NC(=O)c1ccccc1NC(=O)CCCc1ccccc1 | inactive: 8.23% | 
Cc1ccccc1OCC(=O)N1CCN(C(=O)COc2ccccc2C)CC1 | inactive: 16.8% | 
Cc1cc(C)n(-c2ccc(C(=O)NCc3cccs3)cc2)n1 |  | inconclusive: 18.5 µM [inhibitor, single point]
O=C(COc1ccc(F)cc1)NC1CC1 |  | inconclusive: 0.0033 µM [inhibitor, full curve, poor fit]
CN(C(=O)c1ccc(OC2CCN(C(=O)c3cccnc3)CC2)cc1)C1CCCCC1 |  | inconclusive: 14.7 µM [inhibitor, single point]
O=C1C2C(C(=O)N1c1ccccc1)N1CCCN1C2c1ccccc1 (centres undefined) |  | inconclusive: 18.5 µM [inhibitor, single point]
COc1ccc(S(=O)(=O)NCC2CCC(C(=O)O)CC2)cc1 (centres undefined) | inactive: -13.8% | 
COc1cccc(-n2nnc3c(=O)n(Cc4ccc(Br)cc4)cnc32)c1 |  | inconclusive: 5.22 µM [inhibitor, partial curve, poor fit]
COc1ccc(C(=O)NNC(=O)C2CCN(S(=O)(=O)c3ccc(C)cc3)CC2)cc1 |  | inconclusive: 3.7 µM [inhibitor, partial curve]
Cc1ccc2[nH]c(CSc3ccccc3)cc(=O)c2c1 |  | active: 13.1 µM
O=C(O)c1cc(-c2ccccc2)nc(-c2ccccc2)c1 |  | inconclusive: 0.0828 µM [inhibitor, partial curve, poor fit]
O=C(Cc1ccc(F)cc1)Nc1nnc(SCC(=O)N2CCCCC2)s1 |  | inconclusive: 4.15 µM [inhibitor, single point]
Cn1nc(C(F)(F)F)c2cc(C(=O)Nc3ccc(C(F)(F)F)cc3)sc21 |  | inconclusive: 2.94 µM [inhibitor, full curve]
O=C(NCCCN1CCCC1=O)Nc1ccccc1F | inactive: 11.3% | 
Cc1cc(C)n(-c2ccc(F)cc2)c(=O)c1C(=O)O |  | inconclusive: 3.29 µM [inhibitor, full curve]
CCOC(=O)c1cnn(-c2nc(OCC)cc(OCC)n2)c1C |  | inconclusive: 18.5 µM [inhibitor, single point]
